In publication PMC8674265:
These are yes or no findings as the source states them, for the method shown. Binding seen in cells or lysates may run through a third protein. A yes stands for co-enrichment or nearness to the bait. Other partners may have been found. A no says only that the protein was not detected with the bait.

Amino acid sequences for entries named in this document (tags omitted).
UniProt Q15022: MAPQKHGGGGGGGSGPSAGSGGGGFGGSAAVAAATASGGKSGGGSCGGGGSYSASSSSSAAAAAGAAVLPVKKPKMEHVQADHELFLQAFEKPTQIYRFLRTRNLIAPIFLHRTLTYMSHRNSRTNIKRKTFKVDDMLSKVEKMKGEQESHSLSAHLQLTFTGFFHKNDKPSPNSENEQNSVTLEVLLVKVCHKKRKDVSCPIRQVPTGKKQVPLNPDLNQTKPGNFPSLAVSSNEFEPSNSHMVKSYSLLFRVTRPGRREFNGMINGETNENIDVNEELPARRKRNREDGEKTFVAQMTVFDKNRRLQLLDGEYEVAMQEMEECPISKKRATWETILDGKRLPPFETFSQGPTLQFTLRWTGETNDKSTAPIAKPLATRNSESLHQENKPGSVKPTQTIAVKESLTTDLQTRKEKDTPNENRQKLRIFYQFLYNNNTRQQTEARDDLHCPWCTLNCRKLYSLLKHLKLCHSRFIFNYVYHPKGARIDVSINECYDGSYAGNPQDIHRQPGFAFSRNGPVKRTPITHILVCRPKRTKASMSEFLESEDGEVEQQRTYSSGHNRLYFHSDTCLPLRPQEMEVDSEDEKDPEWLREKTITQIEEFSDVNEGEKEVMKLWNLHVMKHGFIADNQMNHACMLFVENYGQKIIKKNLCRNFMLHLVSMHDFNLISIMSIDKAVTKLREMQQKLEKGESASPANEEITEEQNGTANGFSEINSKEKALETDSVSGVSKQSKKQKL
UniProt O96028: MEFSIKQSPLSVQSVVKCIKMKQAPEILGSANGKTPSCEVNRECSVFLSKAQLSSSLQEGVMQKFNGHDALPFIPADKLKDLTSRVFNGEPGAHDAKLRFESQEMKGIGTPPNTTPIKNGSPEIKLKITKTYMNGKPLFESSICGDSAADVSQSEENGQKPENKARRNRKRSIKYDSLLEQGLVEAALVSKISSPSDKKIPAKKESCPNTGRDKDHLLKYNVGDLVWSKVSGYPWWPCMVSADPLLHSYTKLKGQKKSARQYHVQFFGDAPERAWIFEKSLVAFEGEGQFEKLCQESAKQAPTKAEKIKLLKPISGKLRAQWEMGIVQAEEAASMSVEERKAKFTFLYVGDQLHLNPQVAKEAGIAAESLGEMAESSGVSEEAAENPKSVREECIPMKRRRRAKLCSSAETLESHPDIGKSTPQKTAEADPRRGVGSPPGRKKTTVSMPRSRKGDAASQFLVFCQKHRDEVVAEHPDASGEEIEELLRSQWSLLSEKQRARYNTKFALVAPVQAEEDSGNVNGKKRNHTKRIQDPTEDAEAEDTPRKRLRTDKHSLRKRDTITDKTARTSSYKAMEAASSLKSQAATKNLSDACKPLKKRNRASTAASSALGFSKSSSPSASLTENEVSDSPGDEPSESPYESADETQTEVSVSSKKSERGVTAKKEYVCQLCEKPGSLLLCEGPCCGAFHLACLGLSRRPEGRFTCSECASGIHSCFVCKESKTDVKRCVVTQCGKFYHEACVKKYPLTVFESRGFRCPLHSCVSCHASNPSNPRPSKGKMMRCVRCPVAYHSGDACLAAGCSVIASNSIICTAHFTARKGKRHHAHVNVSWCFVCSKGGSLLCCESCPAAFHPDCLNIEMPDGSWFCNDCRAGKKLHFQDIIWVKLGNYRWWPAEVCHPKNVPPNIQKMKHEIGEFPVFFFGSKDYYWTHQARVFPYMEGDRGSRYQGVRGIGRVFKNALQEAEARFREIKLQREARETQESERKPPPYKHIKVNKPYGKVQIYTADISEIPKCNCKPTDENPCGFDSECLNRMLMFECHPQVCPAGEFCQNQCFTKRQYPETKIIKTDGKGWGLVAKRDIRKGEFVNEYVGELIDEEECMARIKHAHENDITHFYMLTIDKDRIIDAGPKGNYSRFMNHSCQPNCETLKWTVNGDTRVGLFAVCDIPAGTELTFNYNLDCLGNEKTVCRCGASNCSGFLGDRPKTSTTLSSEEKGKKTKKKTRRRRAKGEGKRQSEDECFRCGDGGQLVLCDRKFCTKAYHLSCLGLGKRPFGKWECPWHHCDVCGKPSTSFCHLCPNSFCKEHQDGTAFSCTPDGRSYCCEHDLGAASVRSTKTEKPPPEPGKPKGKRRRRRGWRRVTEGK
UniProt Q9UKV8: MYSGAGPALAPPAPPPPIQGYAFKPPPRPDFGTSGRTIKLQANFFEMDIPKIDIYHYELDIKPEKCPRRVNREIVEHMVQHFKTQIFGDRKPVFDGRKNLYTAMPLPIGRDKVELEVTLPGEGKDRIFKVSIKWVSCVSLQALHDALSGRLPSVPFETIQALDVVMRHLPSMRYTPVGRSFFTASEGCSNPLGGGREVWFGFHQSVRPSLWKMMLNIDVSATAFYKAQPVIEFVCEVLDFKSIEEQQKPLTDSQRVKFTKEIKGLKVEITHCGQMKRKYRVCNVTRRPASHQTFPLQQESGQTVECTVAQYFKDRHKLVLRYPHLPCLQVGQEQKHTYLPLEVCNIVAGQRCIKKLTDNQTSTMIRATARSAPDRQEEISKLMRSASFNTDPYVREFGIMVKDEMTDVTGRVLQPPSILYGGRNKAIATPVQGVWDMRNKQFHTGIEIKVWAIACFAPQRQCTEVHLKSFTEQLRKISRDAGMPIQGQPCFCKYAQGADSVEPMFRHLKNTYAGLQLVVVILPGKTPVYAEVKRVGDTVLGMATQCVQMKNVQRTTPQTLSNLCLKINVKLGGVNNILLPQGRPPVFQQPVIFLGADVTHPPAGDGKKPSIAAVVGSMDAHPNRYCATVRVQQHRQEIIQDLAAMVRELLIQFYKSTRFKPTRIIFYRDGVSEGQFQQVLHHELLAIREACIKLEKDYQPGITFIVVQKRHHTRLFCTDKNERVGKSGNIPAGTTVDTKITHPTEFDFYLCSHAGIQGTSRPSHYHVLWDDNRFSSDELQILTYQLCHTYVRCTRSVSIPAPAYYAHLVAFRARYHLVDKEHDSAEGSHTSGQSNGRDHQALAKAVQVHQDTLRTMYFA
UniProt Q9H5I1: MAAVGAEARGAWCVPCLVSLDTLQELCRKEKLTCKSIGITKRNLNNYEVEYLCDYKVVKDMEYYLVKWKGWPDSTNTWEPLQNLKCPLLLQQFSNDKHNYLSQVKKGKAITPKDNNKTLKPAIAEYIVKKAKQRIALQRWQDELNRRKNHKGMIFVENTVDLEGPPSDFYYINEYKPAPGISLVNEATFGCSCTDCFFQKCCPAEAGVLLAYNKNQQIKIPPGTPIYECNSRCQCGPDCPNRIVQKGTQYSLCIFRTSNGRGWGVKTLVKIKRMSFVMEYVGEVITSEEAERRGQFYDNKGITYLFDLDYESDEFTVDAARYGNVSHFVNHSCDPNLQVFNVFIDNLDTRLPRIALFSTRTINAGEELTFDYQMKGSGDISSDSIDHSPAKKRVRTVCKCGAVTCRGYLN
UniProt O75165: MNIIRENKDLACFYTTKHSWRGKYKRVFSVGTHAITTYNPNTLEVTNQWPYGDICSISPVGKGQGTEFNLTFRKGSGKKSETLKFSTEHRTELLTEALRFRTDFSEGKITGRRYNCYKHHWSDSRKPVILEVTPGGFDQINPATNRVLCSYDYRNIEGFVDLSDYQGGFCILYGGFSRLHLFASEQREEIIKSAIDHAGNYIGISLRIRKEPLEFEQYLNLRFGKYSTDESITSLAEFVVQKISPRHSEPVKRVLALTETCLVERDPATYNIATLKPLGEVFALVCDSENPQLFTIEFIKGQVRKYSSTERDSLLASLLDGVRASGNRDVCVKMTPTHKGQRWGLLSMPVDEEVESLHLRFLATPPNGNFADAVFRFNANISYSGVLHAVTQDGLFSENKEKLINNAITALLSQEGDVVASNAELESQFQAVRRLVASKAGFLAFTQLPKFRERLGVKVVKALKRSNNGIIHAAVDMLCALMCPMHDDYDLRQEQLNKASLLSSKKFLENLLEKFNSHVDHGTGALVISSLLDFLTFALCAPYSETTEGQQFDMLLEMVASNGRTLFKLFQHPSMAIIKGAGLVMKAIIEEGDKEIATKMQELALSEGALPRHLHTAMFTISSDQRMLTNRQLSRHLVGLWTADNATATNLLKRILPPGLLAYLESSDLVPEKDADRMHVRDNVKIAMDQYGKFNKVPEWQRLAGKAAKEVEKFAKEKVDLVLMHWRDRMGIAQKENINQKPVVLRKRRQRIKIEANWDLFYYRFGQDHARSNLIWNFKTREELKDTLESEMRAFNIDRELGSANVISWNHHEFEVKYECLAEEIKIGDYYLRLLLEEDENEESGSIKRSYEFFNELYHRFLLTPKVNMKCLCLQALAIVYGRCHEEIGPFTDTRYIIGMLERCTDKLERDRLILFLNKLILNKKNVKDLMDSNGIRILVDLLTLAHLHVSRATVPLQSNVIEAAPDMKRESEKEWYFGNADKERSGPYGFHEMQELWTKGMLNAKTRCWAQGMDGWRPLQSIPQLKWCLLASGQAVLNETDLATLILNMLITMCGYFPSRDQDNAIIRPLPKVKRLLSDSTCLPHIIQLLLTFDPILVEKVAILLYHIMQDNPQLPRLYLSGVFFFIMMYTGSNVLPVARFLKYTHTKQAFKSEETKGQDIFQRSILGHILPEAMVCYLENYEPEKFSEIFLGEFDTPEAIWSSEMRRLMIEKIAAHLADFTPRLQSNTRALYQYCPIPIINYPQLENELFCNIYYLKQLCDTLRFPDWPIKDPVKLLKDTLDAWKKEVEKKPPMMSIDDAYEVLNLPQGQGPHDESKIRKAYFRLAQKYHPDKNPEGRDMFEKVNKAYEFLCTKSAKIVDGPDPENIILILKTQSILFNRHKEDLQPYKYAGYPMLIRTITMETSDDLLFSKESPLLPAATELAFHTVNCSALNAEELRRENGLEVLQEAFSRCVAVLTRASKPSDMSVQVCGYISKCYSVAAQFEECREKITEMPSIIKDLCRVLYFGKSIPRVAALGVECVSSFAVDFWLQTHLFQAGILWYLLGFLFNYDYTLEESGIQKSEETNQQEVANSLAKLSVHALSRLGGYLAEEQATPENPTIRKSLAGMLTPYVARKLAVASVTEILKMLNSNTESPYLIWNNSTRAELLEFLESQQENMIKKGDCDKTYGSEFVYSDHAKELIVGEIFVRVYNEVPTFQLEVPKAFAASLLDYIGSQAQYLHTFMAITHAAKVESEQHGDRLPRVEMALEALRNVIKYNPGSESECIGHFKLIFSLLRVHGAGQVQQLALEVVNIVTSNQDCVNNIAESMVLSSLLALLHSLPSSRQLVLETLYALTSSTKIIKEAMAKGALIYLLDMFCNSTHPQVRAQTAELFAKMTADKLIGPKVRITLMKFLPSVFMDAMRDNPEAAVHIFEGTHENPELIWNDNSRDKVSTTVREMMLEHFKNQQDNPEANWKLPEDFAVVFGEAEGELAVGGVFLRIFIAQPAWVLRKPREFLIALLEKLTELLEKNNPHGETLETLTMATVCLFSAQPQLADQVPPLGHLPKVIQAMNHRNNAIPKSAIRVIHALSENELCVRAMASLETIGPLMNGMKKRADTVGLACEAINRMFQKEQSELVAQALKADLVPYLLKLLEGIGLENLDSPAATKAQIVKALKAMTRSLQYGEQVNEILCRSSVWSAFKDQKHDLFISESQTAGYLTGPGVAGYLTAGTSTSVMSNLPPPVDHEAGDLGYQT
UniProt O75530: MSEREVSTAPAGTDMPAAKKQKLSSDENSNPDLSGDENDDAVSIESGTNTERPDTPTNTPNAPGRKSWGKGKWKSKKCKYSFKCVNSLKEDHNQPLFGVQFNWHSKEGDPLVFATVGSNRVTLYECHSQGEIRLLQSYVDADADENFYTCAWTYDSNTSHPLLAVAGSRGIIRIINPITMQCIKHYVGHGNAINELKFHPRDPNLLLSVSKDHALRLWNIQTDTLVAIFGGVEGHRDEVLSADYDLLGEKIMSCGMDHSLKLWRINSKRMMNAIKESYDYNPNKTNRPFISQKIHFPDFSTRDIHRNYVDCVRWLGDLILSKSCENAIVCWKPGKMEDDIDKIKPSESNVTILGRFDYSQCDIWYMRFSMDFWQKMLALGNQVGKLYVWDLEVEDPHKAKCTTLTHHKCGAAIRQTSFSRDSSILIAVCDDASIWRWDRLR
UniProt Q9BYG3: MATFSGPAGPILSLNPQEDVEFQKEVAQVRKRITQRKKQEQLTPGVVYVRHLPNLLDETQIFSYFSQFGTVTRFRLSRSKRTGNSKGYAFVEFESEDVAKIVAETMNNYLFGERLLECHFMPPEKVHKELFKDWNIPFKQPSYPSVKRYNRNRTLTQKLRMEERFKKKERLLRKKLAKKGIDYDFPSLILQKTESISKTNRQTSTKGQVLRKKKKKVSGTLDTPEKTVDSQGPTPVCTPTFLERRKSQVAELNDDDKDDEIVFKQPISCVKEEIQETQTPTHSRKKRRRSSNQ

T1: ELM2 and SANT domain-containing protein 1 (ELMSAN1) (human (endogenous in HEK293T and Hela.cl1)) (UniProt Q6PJG2)
T1 sequence: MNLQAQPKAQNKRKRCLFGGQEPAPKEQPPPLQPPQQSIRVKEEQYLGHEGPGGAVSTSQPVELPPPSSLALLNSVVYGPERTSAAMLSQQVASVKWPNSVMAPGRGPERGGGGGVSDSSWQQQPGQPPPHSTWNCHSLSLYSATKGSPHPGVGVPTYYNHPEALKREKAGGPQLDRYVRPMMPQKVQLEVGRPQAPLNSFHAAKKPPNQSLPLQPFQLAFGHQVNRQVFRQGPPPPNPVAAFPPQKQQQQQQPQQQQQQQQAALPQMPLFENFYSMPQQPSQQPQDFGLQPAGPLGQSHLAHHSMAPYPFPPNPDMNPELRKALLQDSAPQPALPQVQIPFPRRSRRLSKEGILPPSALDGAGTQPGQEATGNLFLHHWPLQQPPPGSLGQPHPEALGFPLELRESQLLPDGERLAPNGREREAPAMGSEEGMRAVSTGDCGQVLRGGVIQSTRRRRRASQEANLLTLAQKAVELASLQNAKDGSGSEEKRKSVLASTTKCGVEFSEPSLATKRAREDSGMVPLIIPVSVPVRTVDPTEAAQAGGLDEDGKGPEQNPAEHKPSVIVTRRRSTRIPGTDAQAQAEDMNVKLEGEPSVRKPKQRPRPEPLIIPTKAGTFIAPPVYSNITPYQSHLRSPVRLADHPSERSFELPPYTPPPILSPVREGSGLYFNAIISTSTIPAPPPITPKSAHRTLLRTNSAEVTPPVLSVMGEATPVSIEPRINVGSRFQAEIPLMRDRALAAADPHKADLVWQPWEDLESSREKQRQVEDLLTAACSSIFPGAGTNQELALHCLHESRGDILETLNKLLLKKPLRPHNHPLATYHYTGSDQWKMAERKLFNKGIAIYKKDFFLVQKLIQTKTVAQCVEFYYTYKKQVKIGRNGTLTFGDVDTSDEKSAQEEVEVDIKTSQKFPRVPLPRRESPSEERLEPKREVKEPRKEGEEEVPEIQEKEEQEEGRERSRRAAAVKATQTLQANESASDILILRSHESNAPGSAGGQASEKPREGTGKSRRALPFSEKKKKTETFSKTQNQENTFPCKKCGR


Biological target: T1, ELM2 and SANT domain-containing protein 1 (ELMSAN1) (human (endogenous in HEK293T and Hela.cl1))
Test: affinity purification with mass spectrometry; HEK293T nuclear extract precipitated with 5 µg rabbit anti-ELMSAN1 antibody and protein A magnetic beads, eluted with 0.5 M ammonium hydroxide, LC-MS/MS; controls water or normal rabbit IgG; enrichment by spectral counts and SAINT (FC-A > 1); four experiments

binding | Molecule
binds weakly | SUZ12 (from UniProt Q15022 1-739)
binds | NSD1 (from UniProt Q96L73 1-2696)
binds | CDC5L (from UniProt Q99459 1-802)
binds | SENP3 (from UniProt Q9H4L4 1-574)
binds | NSD2 (from UniProt O96028 1-1365)
binds | CNOT9 (from UniProt Q92600 1-299)
binds weakly | JARID2 (from UniProt Q92833 1-1246)
binds | YTHDF1 (from UniProt Q9BYJ9 1-559)
binds | AGO2 (from UniProt Q9UKV8 1-859)

Second part, the molecule before the results:

Molecule | binding
SUV39H2 (from UniProt Q9H5I1 1-410) | no binding
DICER1 (from UniProt Q9UPY3 1-1922) | binds
midasin (MDN1) (from UniProt Q9NU22 1-5596) | binds
histone deacetylase HDAC2 (from UniProt Q92769 1-488) | binds
DNAJC13 (from UniProt O75165 1-2243) | binds
proliferation marker protein Ki67 (MKI67) (from UniProt P46013 1-3256) | binds
KMT2A (from UniProt Q03164 1-3969) | binds
NOP56 (from UniProt O00567 1-594) | binds
KRI1 (from UniProt Q8N9T8 1-703) | binds
YTHDF3 (from UniProt Q7Z739 1-585) | binds
EED (from UniProt O75530 1-441) | binds
CNOT1 (from UniProt A5YKK6 1-2376) | binds
NIFK (from UniProt Q9BYG3 1-293) | binds
CHD6 (from UniProt Q8TD26 1-2715) | binds
SMARCD1 (from UniProt Q96GM5 1-515) | binds
CHD3 (from UniProt Q12873 1-2000) | binds
METTL3 (from UniProt Q86U44 1-580) | no binding
polynucleotide 5′-kinase, NOL9 (protein, UniProt Q5SY16 1-702) MADSGLLLKRGSCRSTWLRVRKARPQLILSRRPRRRLGSLRWCGRRRLRWRLLQAQASGVDWREGARQVSRAAAARRPNTATPSPIPSPTPASEPESEPELESASSCHRPLLIPPVRPVGPGRALLLLPVEQGFTFSGICRVTCLYGQVQVFGFTISQGQPAQDIFSVYTHSCLSIHALHYSQPEKSKKELKREARNLLKSHLNLDDRRWSMQNFSPQCSIVLLEHLKTATVNFITSYPGSSYIFVQESPTPQIKPEYLALRSVGIRREKKRKGLQLTESTLSALEELVNVSCEEVDGCPVILVCGSQDVGKSTFNRYLINHLLNSLPCVDYLECDLGQTEFTPPGCISLLNITEPVLGPPFTHLRTPQKMVYYGKPSCKNNYENYIDIVKYVFSAYKRESPLIVNTMGWVSDQGLLLLIDLIRLLSPSHVVQFRSDHSKYMPDLTPQYVDDMDGLYTKSKTKMRNRRFRLAAFADALEFADEEKESPVEFTGHKLIGVYTDFAFRITPRNRESHNKILRDLSILSYLSQLQPPMPKPLSPLHSLTPYQVPFNAVALRITHSDVAPTHILYAVNASWVGLCKIQDDVRGYTNGPILLAQTPICDCLGFGICRGIDMEKRLYHILTPVPPEELRTVNCLLVGAIAIPHCVLKCQRGIEGTVPYVTTDYNFKLPGASEKIGAREPEEAHKEKPYRRPKFCRKMK | binds
NOP58 (protein, UniProt Q9Y2X3 1-529) MLVLFETSVGYAIFKVLNEKKLQEVDSLWKEFETPEKANKIVKLKHFEKFQDTAEALAAFTALMEGKINKQLKKVLKKIVKEAHEPLAVADAKLGGVIKEKLNLSCIHSPVVNELMRGIRSQMDGLIPGVEPREMAAMCLGLAHSLSRYRLKFSADKVDTMIVQAISLLDDLDKELNNYIMRCREWYGWHFPELGKIISDNLTYCKCLQKVGDRKNYASAKLSELLPEEVEAEVKAAAEISMGTEVSEEDICNILHLCTQVIEISEYRTQLYEYLQNRMMAIAPNVTVMVGELVGARLIAHAGSLLNLAKHAASTVQILGAEKALFRALKSRRDTPKYGLIYHASLVGQTSPKHKGKISRMLAAKTVLAIRYDAFGEDSSSAMGVENRAKLEARLRTLEDRGIRKISGTGKALAKTEKYEHKSEVKTYDPSGDSTLPTCSKKRKIEQVDKEDEITEKKAKKAKIKVKVEEEEEEKVAEEEETSVKKKKKRGKKKHIKEEPLSEEEPCTSTAIASPEKKKKKKKKRENED | binds
DROSHA (protein, UniProt Q9NRR4 1-1374) MMQGNTCHRMSFHPGRGCPRGRGGHGARPSAPSFRPQNLRLLHPQQPPVQYQYEPPSAPSTTFSNSPAPNFLPPRPDFVPFPPPMPPSAQGPLPPCPIRPPFPNHQMRHPFPVPPCFPPMPPPMPCPNNPPVPGAPPGQGTFPFMMPPPSMPHPPPPPVMPQQVNYQYPPGYSHHNFPPPSFNSFQNNPSSFLPSANNSSSPHFRHLPPYPLPKAPSERRSPERLKHYDDHRHRDHSHGRGERHRSLDRRERGRSPDRRRQDSRYRSDYDRGRTPSRHRSYERSRERERERHRHRDNRRSPSLERSYKKEYKRSGRSYGLSVVPEPAGCTPELPGEIIKNTDSWAPPLEIVNHRSPSREKKRARWEEEKDRWSDNQSSGKDKNYTSIKEKEPEETMPDKNEEEEEELLKPVWIRCTHSENYYSSDPMDQVGDSTVVGTSRLRDLYDKFEEELGSRQEKAKAARPPWEPPKTKLDEDLESSSESECESDEDSTCSSSSDSEVFDVIAEIKRKKAHPDRLHDELWYNDPGQMNDGPLCKCSAKARRTGIRHSIYPGEEAIKPCRPMTNNAGRLFHYRITVSPPTNFLTDRPTVIEYDDHEYIFEGFSMFAHAPLTNIPLCKVIRFNIDYTIHFIEEMMPENFCVKGLELFSLFLFRDILELYDWNLKGPLFEDSPPCCPRFHFMPRFVRFLPDGGKEVLSMHQILLYLLRCSKALVPEEEIANMLQWEELEWQKYAEECKGMIVTNPGTKPSSVRIDQLDREQFNPDVITFPIIVHFGIRPAQLSYAGDPQYQKLWKSYVKLRHLLANSPKVKQTDKQKLAQREEALQKIRQKNTMRREVTVELSSQGFWKTGIRSDVCQHAMMLPVLTHHIRYHQCLMHLDKLIGYTFQDRCLLQLAMTHPSHHLNFGMNPDHARNSLSNCGIRQPKYGDRKVHHMHMRKKGINTLINIMSRLGQDDPTPSRINHNERLEFLGDAVVEFLTSVHLYYLFPSLEEGGLATYRTAIVQNQHLAMLAKKLELDRFMLYAHGPDLCRESDLRHAMANCFEALIGAVYLEGSLEEAKQLFGRLLFNDPDLREVWLNYPLHPLQLQEPNTDRQLIETSPVLQKLTEFEEAIGVIFTHVRLLARAFTLRTVGFNHLTLGHNQRMEFLGDSIMQLVATEYLFIHFPDHHEGHLTLLRSSLVNNRTQAKVAEELGMQEYAITNDKTKRPVALRTKTLADLLESFIAALYIDKDLEYVHTFMNVCFFPRLKEFILNQDWNDPKSQLQQCCLTLRTEGKEPDIPLYKTLQTVGPSHARTYTVAVYFKGERIGCGKGPSIQQAEMGAAMDALEKYNFPQMAHQKRFIERKYRQELKEMRWEREHQEREPDETEDIKK | binds
NHP2 (protein, UniProt Q9NX24 1-153) MTKIKADPDGPEAQAEACSGERTYQELLVNQNPIAQPLASRRLTRKLYKCIKKAVKQKQIRRGVKEVQKFVNKGEKGIMVLAGDTLPIEVYCHLPVMCEDRNLPYVYIPSKTDLGAAAGSKRPTCVIMVKPHEEYQEAYDECLEEVQSLPLPL | binds
